Article PMC7596556
No constants are given. Whether binding was seen depends on the method and setting. For some assays here: Binding seen in cells or lysates may run through a third protein. Some entries that bind do so weakly or less than the wild type. For some assays here: Tags and fused reporters may be left off the sequences shown.

By UniProt entry, the sequences of proteins in these tests, tags left out. Where a name states a change or a piece, a line headed by the entry shows the natural chain unless it says otherwise.
UniProt O00629: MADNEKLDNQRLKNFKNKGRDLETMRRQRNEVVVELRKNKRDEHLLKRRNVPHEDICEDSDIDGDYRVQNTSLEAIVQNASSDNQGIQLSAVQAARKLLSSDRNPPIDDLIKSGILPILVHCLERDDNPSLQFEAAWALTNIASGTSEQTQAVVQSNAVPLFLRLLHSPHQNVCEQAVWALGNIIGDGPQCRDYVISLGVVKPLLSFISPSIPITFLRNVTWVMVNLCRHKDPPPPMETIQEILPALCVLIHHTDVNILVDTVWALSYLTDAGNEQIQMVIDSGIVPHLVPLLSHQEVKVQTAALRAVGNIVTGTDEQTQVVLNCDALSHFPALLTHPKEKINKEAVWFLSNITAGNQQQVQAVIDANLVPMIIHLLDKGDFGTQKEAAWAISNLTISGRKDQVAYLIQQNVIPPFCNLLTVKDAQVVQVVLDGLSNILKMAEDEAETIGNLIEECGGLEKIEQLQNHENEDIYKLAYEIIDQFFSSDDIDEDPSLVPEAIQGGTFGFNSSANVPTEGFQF
UniProt Q14974: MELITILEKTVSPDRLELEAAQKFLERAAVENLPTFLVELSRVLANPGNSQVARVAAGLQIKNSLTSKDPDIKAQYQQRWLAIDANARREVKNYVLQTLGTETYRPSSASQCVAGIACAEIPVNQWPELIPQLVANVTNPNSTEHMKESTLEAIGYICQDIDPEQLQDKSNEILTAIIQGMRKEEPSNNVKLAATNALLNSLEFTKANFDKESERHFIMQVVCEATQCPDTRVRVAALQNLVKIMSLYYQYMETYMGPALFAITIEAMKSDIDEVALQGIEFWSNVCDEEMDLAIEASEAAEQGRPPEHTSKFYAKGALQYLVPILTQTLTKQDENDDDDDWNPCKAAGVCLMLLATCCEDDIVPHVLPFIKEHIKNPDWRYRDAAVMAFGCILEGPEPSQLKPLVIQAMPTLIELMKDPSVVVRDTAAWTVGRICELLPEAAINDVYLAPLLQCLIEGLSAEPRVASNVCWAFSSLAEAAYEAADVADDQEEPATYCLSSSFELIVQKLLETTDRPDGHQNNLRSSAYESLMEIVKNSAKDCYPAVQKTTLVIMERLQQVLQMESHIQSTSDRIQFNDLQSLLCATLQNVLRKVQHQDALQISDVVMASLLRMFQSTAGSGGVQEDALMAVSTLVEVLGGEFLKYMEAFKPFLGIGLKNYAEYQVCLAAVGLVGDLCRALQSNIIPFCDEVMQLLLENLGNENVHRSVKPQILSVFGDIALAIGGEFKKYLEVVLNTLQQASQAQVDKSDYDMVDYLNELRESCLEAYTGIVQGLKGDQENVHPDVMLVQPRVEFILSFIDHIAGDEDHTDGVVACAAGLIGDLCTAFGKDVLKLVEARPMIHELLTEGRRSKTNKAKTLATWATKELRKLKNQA
UniProt P52294: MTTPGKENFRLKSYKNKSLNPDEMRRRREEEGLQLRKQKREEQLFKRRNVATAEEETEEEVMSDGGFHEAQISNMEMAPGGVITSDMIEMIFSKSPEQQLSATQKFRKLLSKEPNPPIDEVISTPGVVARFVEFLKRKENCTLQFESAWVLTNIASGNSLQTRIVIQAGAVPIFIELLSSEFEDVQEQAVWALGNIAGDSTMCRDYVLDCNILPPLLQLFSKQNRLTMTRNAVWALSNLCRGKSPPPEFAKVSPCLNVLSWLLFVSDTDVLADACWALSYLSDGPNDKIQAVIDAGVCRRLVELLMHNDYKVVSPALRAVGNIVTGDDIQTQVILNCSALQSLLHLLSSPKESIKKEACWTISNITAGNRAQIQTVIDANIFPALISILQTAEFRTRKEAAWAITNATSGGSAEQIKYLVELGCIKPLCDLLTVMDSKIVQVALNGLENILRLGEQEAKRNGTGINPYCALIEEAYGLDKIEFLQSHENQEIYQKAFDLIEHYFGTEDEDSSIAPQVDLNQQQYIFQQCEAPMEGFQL
UniProt P03372: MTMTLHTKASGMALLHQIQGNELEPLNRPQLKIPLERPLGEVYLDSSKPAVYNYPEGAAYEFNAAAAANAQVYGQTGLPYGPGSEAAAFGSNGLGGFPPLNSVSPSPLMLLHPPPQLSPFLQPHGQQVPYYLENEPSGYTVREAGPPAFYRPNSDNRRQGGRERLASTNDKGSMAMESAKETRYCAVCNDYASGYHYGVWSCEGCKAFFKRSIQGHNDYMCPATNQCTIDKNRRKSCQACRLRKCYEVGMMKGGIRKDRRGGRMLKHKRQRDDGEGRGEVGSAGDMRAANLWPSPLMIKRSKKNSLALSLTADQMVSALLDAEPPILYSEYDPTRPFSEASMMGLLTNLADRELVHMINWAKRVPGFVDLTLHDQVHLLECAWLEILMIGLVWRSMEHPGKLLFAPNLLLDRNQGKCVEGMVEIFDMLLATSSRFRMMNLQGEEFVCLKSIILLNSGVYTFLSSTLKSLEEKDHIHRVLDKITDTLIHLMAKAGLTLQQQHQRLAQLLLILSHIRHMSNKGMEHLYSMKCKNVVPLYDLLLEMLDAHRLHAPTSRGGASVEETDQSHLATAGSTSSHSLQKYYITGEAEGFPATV

Tests used:
[1] = target: T1, GST-TNPO2 (Transportin-2) (human) (UniProt O14787); assay: pull-down; 50 pmol GST fusion protein on Glutathione Sepharose 4B mixed with lysate of transfected HeLa cells; cells untreated or treated with 10 nM E2; lysis buffer 20 mM HEPES/NaOH pH 7.3, 150 mM NaCl, 5 mM MgCl2, 0.05% Tween-20; western blot for HA; only the target purified
T1 sequence: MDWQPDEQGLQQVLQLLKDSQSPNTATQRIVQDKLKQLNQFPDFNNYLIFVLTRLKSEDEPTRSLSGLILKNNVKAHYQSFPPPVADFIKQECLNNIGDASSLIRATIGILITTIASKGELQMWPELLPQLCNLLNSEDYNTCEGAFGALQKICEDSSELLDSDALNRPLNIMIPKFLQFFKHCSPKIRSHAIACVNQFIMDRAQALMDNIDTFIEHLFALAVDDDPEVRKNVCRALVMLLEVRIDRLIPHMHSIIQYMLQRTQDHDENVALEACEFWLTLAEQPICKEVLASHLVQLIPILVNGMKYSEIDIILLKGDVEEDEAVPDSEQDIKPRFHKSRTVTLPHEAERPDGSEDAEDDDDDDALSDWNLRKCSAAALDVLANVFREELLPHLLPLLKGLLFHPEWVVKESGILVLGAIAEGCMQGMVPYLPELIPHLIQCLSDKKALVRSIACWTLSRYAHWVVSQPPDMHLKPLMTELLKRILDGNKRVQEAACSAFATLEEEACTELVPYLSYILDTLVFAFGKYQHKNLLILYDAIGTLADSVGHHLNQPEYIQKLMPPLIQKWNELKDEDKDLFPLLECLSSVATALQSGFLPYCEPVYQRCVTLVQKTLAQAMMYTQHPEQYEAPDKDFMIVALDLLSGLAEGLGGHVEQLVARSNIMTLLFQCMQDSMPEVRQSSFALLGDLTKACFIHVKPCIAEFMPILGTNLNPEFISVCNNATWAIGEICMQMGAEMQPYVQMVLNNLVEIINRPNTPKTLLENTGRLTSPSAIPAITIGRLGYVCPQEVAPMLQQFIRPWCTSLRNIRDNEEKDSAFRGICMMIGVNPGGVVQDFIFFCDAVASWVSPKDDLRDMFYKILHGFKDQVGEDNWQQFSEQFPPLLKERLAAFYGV

[2] = target: T1, GST-TNPO2 (Transportin-2) (human); assay: pull-down; recombinant GST-TNPO2 with recombinant 3 × Flag-importin-α1 or 3 × Flag-importin-α4 (Supplementary Fig. 6); both purified
[3] = target: GST-importin-α4 (human) (UniProt O00629); assay: pull-down; competition: GST-importin-α1 or GST-importin-α4 on glutathione Sepharose beads incubated with lysate of E2-treated (10 nM) HeLa cells expressing 3 × HA-ERα, washed, then incubated with different amounts of TNPO2; bound fraction blotted for HA; only the target purified
[4] = target: GST-importin-α4 (human) (UniProt O00629); assay: pull-down; 50 pmol GST fusion protein on Glutathione Sepharose 4B mixed with lysate of transfected HeLa cells; cells untreated or treated with 10 nM E2; lysis buffer 20 mM HEPES/NaOH pH 7.3, 150 mM NaCl, 5 mM MgCl2, 0.05% Tween-20; western blot for HA; only the target purified
[5] = target: GST-importin-β1 (human) (UniProt Q14974); assay: as above
[6] = target: GST-importin-α1 (human) (UniProt P52294); assay: pull-down; as a1, in the absence of E2 only: 50 pmol GST fusion protein on Glutathione Sepharose 4B mixed with lysate of transfected HeLa cells; only the target purified

Row | Substance | binding [1] | binding [2] | also measured
1 | 3 × HA-ERαΔ2 (from UniProt P03372 181-595) (domain or fragment) | binds |  | 
2 | recombinant 3 × Flag-importin-α1 (from UniProt P52294 1-538) |  | no binding | 
3 | 3 × HA-ERα (oestrogen receptor-α, wild type) (from UniProt P03372 1-595) | binds |  | binding [3]: binds; binding [4]: binds; binding [5]: binds; binding [6]: binds weakly
4 | recombinant 3 × Flag-importin-α4 (from UniProt O00629 1-521) |  | no binding | 
